PubChem BioAssay AID686943 – Drosophila RNAi Screening Center – 2013

Test: 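Fly genes whose loss alters ERK activation after insulin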 (primary screen)
System: Drosophila S2R+ haemocyte-like cells expressing YFP-tagged ERK (Rolled)
Reagents: long dsRNA against Drosophila genes
Challenge: insulin stimulation versus unstimulated cells; dose and duration not given
Measurement: 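Antibody staining for doubly phosphorylated ERK divided by ERK-YFP signal, as plate z-scores, in insulin-treated and untreated cells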
Scale: replicate 1, z-score of dpERK with insulin and replicate 2, z-score of dpERK with insulin: higher = more active ERK per ERK-YFP after insulin; replicate 1, z-score of dpERK under basal conditions: higher = more basal active ERK per ERK-YFP; replicate 1, z-score of ERK-YFP with insulin: higher = more YFP-tagged ERK signal
In all, the deposit lists about 23,000 reagents; below is a random part of those that have a named target and a result. 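Extra replicates exist only for a retested subset of genes; insulin dose and duration not given; both raised and lowered dpERK matter.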 Not stated in the record: the amount of reagent, the time to read-out.

target gene,dsRNA,"replicate 1, z-score of dpERK with insulin","replicate 2, z-score of dpERK with insulin","replicate 1, z-score of dpERK under basal conditions","replicate 1, z-score of ERK-YFP with insulin"
rdgBbeta (GeneID 37011),DRSC07672,0.01,0.19,0.72,0.83
blot (GeneID 39939),DRSC09485,-0.11,0.44,-0.27,-0.31
blot (GeneID 39939),DRSC11328,-1.12,-0.2,-0.2,-0.01
CG2656 (GeneID 40857),DRSC12584,-0.42,0.07,-0.75,0.62
CG10681 (GeneID 39425),DRSC09777,0.72,0.04,0.04,-0.15
CG10681 (GeneID 39425),DRSC21484,0.77,-1.33,0.37,-1.13
CG31600 (GeneID 318834),DRSC22541,1.01,0.69,-0.15,-0.38
CG34223 (GeneID 5740431),DRSC05268,0.14,-0.39,-1.41,-0.03
Gr22b (GeneID 117492),DRSC20911,-0.54,-0.04,-1.56,-2.7
Syngr (GeneID 36533),DRSC06003,0.46,0.08,-0.07,-0.98
dnc (GeneID 31309),DRSC17758,-2.32,-2.41,-0.91,0.87
dnc (GeneID 31309),DRSC17759,-1.38,-1.41,0,2.11
dnc (GeneID 31309),DRSC17911,-0.97,0.12,0.87,0.14
dnc (GeneID 31309),DRSC18763,0.45,0.84,0.61,-0.15
dnc (GeneID 31309),DRSC18764,-1.25,1.7,0.16,0.76
Mec2 (GeneID 32905),DRSC20054,-0.16,-0.3,-0.28,-0.5
CG15452 (GeneID 33061),DRSC20523,0.28,0.03,-0.28,0.05
GstT4 (GeneID 32299),DRSC19757,-0.49,-0.68,-1.26,0.87
l(2)41Ab (GeneID 5740691),DRSC21007,0.38,-1.35,0.8,1.27
ct (GeneID 44540),DRSC18757,-0.17,-0.08,-2.33,-0.41
Zyx (GeneID 317824),DRSC17186,0.53,0.82,0.37,0.09
dar1 (GeneID 38436),DRSC08049,0.42,1.03,-0.19,-0.24
dar1 (GeneID 38436),DRSC08233,-0.33,-0.37,-0.17,0.7
Tmep (GeneID 38185),DRSC08215,0.48,0.59,0.85,-0.68
CG5877 (GeneID 32455),DRSC19963,-0.03,0.14,0.02,0.17
Upf2 (GeneID 31724),DRSC18218,-1.67,-0.42,0.58,1.13
tsh (GeneID 35430),DRSC03740,1.42,0.47,1.7,-0.85
ng4 (GeneID 31301),DRSC18805,0.56,-0.15,1.66,-0.03
CG3368 (GeneID 43292),DRSC15485,-0.16,-0.01,0.28,-1.82
CG31999 (GeneID 43777),DRSC17131,-0.2,0.41,-0.06,-0.08
CG31999 (GeneID 43777),DRSC17133,0.06,-0.16,0.2,0.27
CG13723 (GeneID 39925),DRSC10052,0.09,0.22,1.65,0.6
CG9263 (GeneID 34770),DRSC03176,1.37,0.38,0.17,0.07

Ordered by “replicate 1, z-score of dpERK under basal conditions” (high to low): some entries from above
target gene,dsRNA,"replicate 1, z-score of dpERK with insulin","replicate 2, z-score of dpERK with insulin","replicate 1, z-score of dpERK under basal conditions","replicate 1, z-score of ERK-YFP with insulin"
dnc (GeneID 31309),DRSC17911,-0.97,0.12,0.87,0.14
dnc (GeneID 31309),DRSC18763,0.45,0.84,0.61,-0.15
dnc (GeneID 31309),DRSC18764,-1.25,1.7,0.16,0.76
dnc (GeneID 31309),DRSC17759,-1.38,-1.41,0,2.11
Syngr (GeneID 36533),DRSC06003,0.46,0.08,-0.07,-0.98
Mec2 (GeneID 32905),DRSC20054,-0.16,-0.3,-0.28,-0.5
CG15452 (GeneID 33061),DRSC20523,0.28,0.03,-0.28,0.05
dnc (GeneID 31309),DRSC17758,-2.32,-2.41,-0.91,0.87
GstT4 (GeneID 32299),DRSC19757,-0.49,-0.68,-1.26,0.87
CG34223 (GeneID 5740431),DRSC05268,0.14,-0.39,-1.41,-0.03
Gr22b (GeneID 117492),DRSC20911,-0.54,-0.04,-1.56,-2.7

Further records:
target gene,dsRNA,"replicate 1, z-score of dpERK with insulin","replicate 2, z-score of dpERK with insulin","replicate 1, z-score of dpERK under basal conditions","replicate 1, z-score of ERK-YFP with insulin"
Gr22d (GeneID 14462661),DRSC21653,0.05,-0.18,-0.54,-0.12
CG14720 (GeneID 41415),DRSC14942,0.36,0.47,0.97,0.41
CG31862 (GeneID 318989),DRSC01245,0.13,0.12,-0.12,0.3
peb (GeneID 31391),DRSC18817,-0.75,-2.31,-0.42,1.33
Gnptab (GeneID 35943),DRSC07057,1.12,0.23,0.79,-0.32
CG8814 (GeneID 33492),DRSC00707,0.77,-0.07,-0.39,0.09
CG16749 (GeneID 41111),DRSC15146,0.29,0.11,-0.48,0.66
flw (GeneID 44289),DRSC17992,-0.1,0.74,0.04,0.06
flw (GeneID 44289),DRSC18774,-2.08,-1.96,-0.53,-0.47
robls54B (GeneID 5740248),DRSC05660,0.7,0.03,0.3,-0.16
Jhbp16 (GeneID 42552),DRSC15039,0.34,-0.23,0.1,-0.44
CG33768 (GeneID 3771840),DRSC11715,1.5,0.26,1.55,-1.5
salr (GeneID 34568),DRSC03607,0.87,0.83,-0.62,-0.74
CG15254 (GeneID 34915),DRSC01870,-0.15,-0.56,-0.77,0.32
CG15254 (GeneID 34915),DRSC21765,0.63,0.53,-1.55,0.17
CG1927 (GeneID 38262),DRSC08146,0.01,-0.21,-0.04,0.55
Gbp3 (GeneID 42709),DRSC15206,-0.46,-0.19,-0.57,0.16
Pdk (GeneID 35970),DRSC07504,0.04,4.43,0.24,-0.25
CG2577 (GeneID 32188),DRSC19863,-0.2,-0.24,1.34,-0.52
CG7878 (GeneID 40959),DRSC16330,-1.58,0.11,-0.78,2.85
ClC-b (GeneID 36381),DRSC07220,-0.39,0.4,-0.25,0.23
CPT2 (GeneID 38355),DRSC08553,0.81,1.1,-1.04,-0.27
CG8539 (GeneID 38842),DRSC10988,0.72,0.71,0.1,-0.11
CG8539 (GeneID 38842),DRSC21798,-0.15,-0.27,-0.16,0.9
CG15155 (GeneID 35087),DRSC02456,-0.65,0.15,-1.27,0.37
CG42685 (GeneID 34854),DRSC01971,-0.36,0.02,-1.08,0.82
Oatp33Eb (GeneID 34662),DRSC02955,-0.05,0.63,-4.36,0.53
pall (GeneID 39104),DRSC10364,-0.81,-0.75,-0.17,0.06
Hel25E (GeneID 33781),DRSC03342,-0.29,1.09,6.05,-4.48
CG30291 (GeneID 246534),DRSC03842,-1.29,0.02,-0.74,-0.46
drd (GeneID 318102),DRSC19343,0.28,0.04,0.81,0.02
drd (GeneID 318102),DRSC21466,0.12,1,-0.1,0.47
CG32391 (GeneID 318007),DRSC08865,-0.16,-1.53,-0.74,-0.2
qin (GeneID 42236),DRSC14782,1.11,0.42,1.18,-0.77
qin (GeneID 42236),DRSC14785,0.49,-0.55,-0.2,-0.18
CG34355 (GeneID 42820),DRSC13639,0.91,0.24,1.89,-0.06
CG34355 (GeneID 42820),DRSC14520,0.11,-0.09,-0.17,0.1
CG34355 (GeneID 42820),DRSC14668,1.24,0.14,0.45,-0.14
CG34355 (GeneID 42820),DRSC21687,1.1,0.47,1.62,0.06
CG32071 (GeneID 39246),DRSC22298,-0.07,-0.49,-0.64,-1.19
